Values from PubChem BioAssay AID602196 (INSERM, 2012)

Screen: 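Genes whose knock-down alters cisplatin killing of lung cancer cells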
System: human A549 lung cancer cells
Knock-down reagent: siRNA pair against human genes
Timing: 48 h transfection before cisplatin; time from cisplatin to read-out not stated
Conditions: cisplatin at a dose killing half of control-siRNA cells; exact dose and duration not given
Measured: 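Shift in cisplatin death relative to control siRNA, from -50 (all cells die) to +50 (no cells die); siRNAs harmful on their own scored 0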
Reading the numbers: two-siRNA summed score (-2 to +2): higher = both siRNAs protect from cisplatin killing; -2 means both sensitise; mean protection from cisplatin (shift in death): higher = protection from cisplatin killing
Call rule: 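siRNAs harmful alone (LDH or WST-1) get 0; others get +1 for less and -1 for more cisplatin killing; genes are active when the two siRNAs give the same sign, summing to ±2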
Meaning of the calls: active = both siRNAs shift cisplatin killing the same way; inactive = no consistent shift, or siRNA harmful alone
This is an unselected part of about 23,000 reagents. 455 of all reagents (2%) were called active. 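Active includes both protection and sensitisation; some change values fall well beyond the stated -50 to +50 range.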 A number with no mark means an inactive call. Not all columns of the deposit are shown. The record does not give: the amount of reagent.

After knock-down of PCDH17 (GeneID 27253), the record shows two-siRNA summed score (-2 to +2) = 0; mean protection from cisplatin (shift in death) (%) = -4.8.
Against RHPN2 (GeneID 85415), the entry reads two-siRNA summed score (-2 to +2) = 0; mean protection from cisplatin (shift in death) (%) = 6.3.
After knock-down of LOC440659 the results were two-siRNA summed score (-2 to +2) = 0; mean protection from cisplatin (shift in death) (%) = 8.5.
Against THPO (GeneID 7066), the entry reads two-siRNA summed score (-2 to +2) = 0; mean protection from cisplatin (shift in death) (%) = -7.1.
Against CLEC2A (GeneID 387836), the values are two-siRNA summed score (-2 to +2) = 1; mean protection from cisplatin (shift in death) (%) = 9.5.
Depletion of PBX2 (GeneID 5089) came out at: two-siRNA summed score (-2 to +2) = 1; mean protection from cisplatin (shift in death) (%) = 11.4.
For PCDHGC4 (GeneID 56098) the deposit lists two-siRNA summed score (-2 to +2) = 0; mean protection from cisplatin (shift in death) (%) = 22.
After knock-down of IFNGR2 (GeneID 3460), the record shows two-siRNA summed score (-2 to +2) = 0; mean protection from cisplatin (shift in death) (%) = -6.9.
FN3K (GeneID 64122) gave two-siRNA summed score (-2 to +2) = 1; mean protection from cisplatin (shift in death) (%) = 14.4.
PXDC1 (GeneID 221749) showed two-siRNA summed score (-2 to +2) = 0; mean protection from cisplatin (shift in death) (%) = 7.
Against LINC02870 (GeneID 170393) the deposit lists two-siRNA summed score (-2 to +2) = 0; mean protection from cisplatin (shift in death) (%) = 26.8.
With knock-down of KIFBP (GeneID 26128) the results were two-siRNA summed score (-2 to +2) = 0; mean protection from cisplatin (shift in death) (%) = 9.8.

No new results follow: entries from further up.
PCDHGC4 (GeneID 56098) → two-siRNA summed score (-2 to +2) = 0; mean protection from cisplatin (shift in death) (%) = 22
IFNGR2 (GeneID 3460) → two-siRNA summed score (-2 to +2) = 0; mean protection from cisplatin (shift in death) (%) = -6.9
